# PubChem BioAssay AID2398 (Broad Institute, 2010)
# This is one part of the list. Potency and affinity values are given separately. Entries without a call are filed as inconclusive in the source.
# Experiment: Blocking PAR1-agonist-triggered platelet dense granule ATP secretion in human PRP, luminescent 384-well dose-response confirmation (AID 2398)
# Settings: human platelet-rich plasma, SFLLRN-induced dense granule ATP release, luminescence; at 50 µM (top of the series)
compound,measurement,value
CC(=O)Nc1cccc(NC(=O)c2cccc(Cl)c2)c1,"activity change, negative = inhibition",-40.7%
